Results on two molecules are retold here after publication PMC4994950.

Assay [1] concerns the target human tyrosinase, residues 19-456 (TYR456) (human) (UniProt P14679). The assay is described as follows: SEC; analytical gel filtration, Superdex 200 10/300; 0.1 mL of ~10 mg/mL protein loaded; 25 mM Tris-HCl, pH 7.8, 200 mM NaCl; 0.5 mL/min; both purified. On the technique in general: Size exclusion chromatography separates by hydrodynamic size, large species first.
The target of assay [2] is human tyrosinase, residues 19-469 (TYR469) (human) (UniProt P14679). Described as above.

These are yes or no findings as the source states them, for the method shown.

B1: human tyrosinase, residues 19-456 (TYR456) (domain or fragment, UniProt P14679 19-456)
chain: HFPRACVSSKNLMEKECCPPWSGDRSPCGQLSGRGSCQNILLSNAPLGPQFPFTGVDDRESWPSVFYNRTCQCSGNFMGFNCGNCKFGFWGPNCTERRLLVRRNIFDLSAPEKDKFFAYLTLAKHTISSDYVIPIGTYGQMKNGSTPMFNDINIYDLFVWMHYYVSMDALLGGSEIWRDIDFAHEAPAFLPWHRLFLLRWEQEIQKLTGDENFTIPYWDWRDAEKCDICTDEYMGGQHPTNPNLLSPASFFSSWQIVCSRLEEYNSHQSLCNGTPEGPLRRNPGNHDKSRTPRLPSSADVEFCLSLTQYESGSMDKAANFSFRNTLEGFASPLTGIADASQSSMHNALHIYMNGTMSQVQGSANDPIFLLHHAFVDSIFEQWLRRHRPLQEVYPEANAPIGHNRESYMVPFIPLYRNGDFFISSKDLGYDYSYLQDSD
modifications: N-linked glycosylation (seven putative sites)
Turning to B1, the binding entry in assay [1] is listed as “no binding (tested: ~10 mg/mL loaded)”.

B2: human tyrosinase, residues 19-469 (TYR469) (domain or fragment, UniProt P14679 19-469)
chain: HFPRACVSSKNLMEKECCPPWSGDRSPCGQLSGRGSCQNILLSNAPLGPQFPFTGVDDRESWPSVFYNRTCQCSGNFMGFNCGNCKFGFWGPNCTERRLLVRRNIFDLSAPEKDKFFAYLTLAKHTISSDYVIPIGTYGQMKNGSTPMFNDINIYDLFVWMHYYVSMDALLGGSEIWRDIDFAHEAPAFLPWHRLFLLRWEQEIQKLTGDENFTIPYWDWRDAEKCDICTDEYMGGQHPTNPNLLSPASFFSSWQIVCSRLEEYNSHQSLCNGTPEGPLRRNPGNHDKSRTPRLPSSADVEFCLSLTQYESGSMDKAANFSFRNTLEGFASPLTGIADASQSSMHNALHIYMNGTMSQVQGSANDPIFLLHHAFVDSIFEQWLRRHRPLQEVYPEANAPIGHNRESYMVPFIPLYRNGDFFISSKDLGYDYSYLQDSDPDSFQDYIKSYLE
modifications: N-linked glycosylation (seven putative sites)
As for B2, the binding entry in assay [2] is on record as “no binding (tested: ~10 mg/mL loaded)”.
